Measurements: the supplement of paper PMC9015667
Counter-ions that a name gives are not always drawn. The list shows a part of the results. Most values come without repeats; read them as rough.

Tests used:
Assay in all cases: reduction in cell viability relative to untreated/vehicle; higher = more growth inhibition
Conditions in all cases: 200 nM; 72 h
M229P = tested on: M229P (parental melanoma line)
M229R = tested on: M229R (matched melanoma line resistant to BRAF inhibitors)
M238P = tested on: M238P (parental melanoma line)
M238R = tested on: M238R (matched melanoma line resistant to BRAF inhibitors)
M249P = tested on: M249P (parental melanoma line)
M249R = tested on: M249R (matched melanoma line resistant to BRAF inhibitors)
UACC62P = tested on: UACC62P (parental melanoma line)
UACC62R = tested on: UACC62R (matched melanoma line resistant to BRAF inhibitors)

Structure (SMILES) | reduction in cell viability (M229P) [%] | reduction in cell viability (M229R) [%] | reduction in cell viability (M238P) [%] | reduction in cell viability (M238R) [%] | reduction in cell viability (M249P) [%] | reduction in cell viability (M249R) [%] | reduction in cell viability (UACC62P) [%] | reduction in cell viability (UACC62R) [%]
Cn1cncc1[C@@](N)(c1ccc(Cl)cc1)c1ccc2c(c1)c(-c1cccc(Cl)c1)cc(=O)n2C [Tipifarnib] | < 0 | < 0 | < 0 | 2.05 | < 0 | 3.84 | < 0 | 21.1
CCc1ccc(OCc2ccccc2C(=O)Nc2ccc3nc(C)cc(N)c3c2)cc1 | < 0 | < 0 | < 0 | < 0 | < 0 | 5.69 | < 0 | < 0
CCOC(=O)C1=C[C@@H](OC(CC)CC)[C@H](NC(C)=O)[C@@H](N)C1 [Oseltamivir phosphate] | < 0 | < 0 | < 0 | < 0 | < 0 | 16.3 | 9.11 | < 0
O=C(O)c1cccc(-c2noc(-c3ccccc3F)n2)c1 | < 0 | < 0 | < 0 | < 0 | < 0 | < 0 | < 0 | < 0
O=[N+]([O-])c1cn2c(n1)OC[C@@H](OCc1ccc(OC(F)(F)F)cc1)C2 | < 0 | < 0 | < 0 | < 0 | < 0 | < 0 | < 0 | < 0
N.N.O=C([O-])C[O-].[Pt+2] [Nedaplatin] | < 0 | < 0 | < 0 | < 0 | < 0 | < 0 | < 0 | < 0
Cc1ccc(NC(=O)c2ccc(CN3CC[C@H](N(C)C)C3)c(C(F)(F)F)c2)cc1Nc1nccc(-c2cncnc2)n1 [Bafetinib] | < 0 | < 0 | 15.1 | < 0 | 2.98 | < 0 | 23.4 | < 0
Cc1ccc(C)c(OCCCC(C)(C)C(=O)O)c1 [Gemfibrozil] | < 0 | < 0 | < 0 | < 0 | < 0 | < 0 | < 0 | < 0
CN(c1ccccc1CNc1nc(Nc2ccc3c(c2)CC(=O)N3)ncc1C(F)(F)F)S(C)(=O)=O | < 0 | < 0 | < 0 | < 0 | < 0 | < 0 | < 0 | < 0
CCOC(=O)Nc1ccc(NCc2ccc(F)cc2)nc1N [Flupirtine maleate] | < 0 | < 0 | < 0 | < 0 | < 0 | < 0 | < 0 | < 0
COc1c(Cl)cc2c([nH]c3cnccc32)c1NC(=O)c1cccnc1C | < 0 | < 0 | < 0 | < 0 | < 0 | < 0 | 0.68 | < 0
O=C(c1cncc(Br)c1)N1CCC(N2CCCC2)CC1 | < 0 | < 0 | < 0 | < 0 | < 0 | < 0 | < 0 | < 0
CC1(C)Cc2c(-c3ccccc3)c(-c3ccc(Cl)cc3)c(CC(=O)O)n2C1 [Licofelone] | < 0 | < 0 | < 0 | < 0 | < 0 | < 0 | < 0 | < 0
CCC(=O)O[C@]1(C(=O)CCl)[C@@H](C)C[C@H]2[C@@H]3CCC4=CC(=O)C=C[C@]4(C)[C@@]3(F)[C@@H](O)C[C@@]21C [Clobetasol propionate] | < 0 | < 0 | < 0 | < 0 | < 0 | < 0 | < 0 | < 0
CCc1cncnc1N1CCN(Cc2nc3ccc(C(F)(F)F)cc3[nH]2)CC1 | < 0 | < 0 | < 0 | < 0 | < 0 | < 0 | < 0 | < 0
COc1ccc2cc1Oc1ccc(cc1)C[C@H]1c3cc(c(OC)cc3CCN1C)Oc1c(OC)c(OC)cc3c1[C@H](C2)N(C)CC3 [Tetrandrine] | < 0 | < 0 | < 0 | < 0 | < 0 | < 0 | 8.83 | < 0
O=C(/C=C/c1ccc(CN(CCO)CCc2c[nH]c3ccccc23)cc1)NO [Dacinostat] | 85.6 | 73.8 | 82.1 | 79.5 | 77.8 | 87.4 | 90.8 | 87.3
CCNc1cc(NC2CCC(O)CC2)nc(Nc2ccc3c(ccn3Cc3ccccc3)c2)n1 (stereo not given) [Cdk4/6 Inhibitor IV] | < 0 | < 0 | < 0 | < 0 | < 0 | < 0 | < 0 | < 0
C[C@@H]1[C@H](O)[C@@H](C)/C=C/C=C/C=C/C=C/C=C/C=C/C=C/[C@H](O[C@@H]2O[C@H](C)[C@@H](O)[C@H](N)[C@@H]2O)C[C@@H]2O[C@](O)(C[C@@H](O)C[C@@H](O)[C@H](O)CC[C@@H](O)C[C@@H](O)CC(=O)O[C@H]1C)C[C@H](O)[C@H]2C(=O)O [Amphotericin B] | < 0 | < 0 | < 0 | < 0 | < 0 | < 0 | < 0 | < 0
COc1cccc2c1C(=O)c1c(O)c3c(c(O)c1C2=O)C[C@@](O)(C(=O)CO)C[C@@H]3O[C@H]1C[C@H](N)[C@H](O)[C@H](C)O1 [Doxorubicin (Adriamycin)] | 65.1 | 62.1 | 91.3 | 83.7 | 93.5 | 88.2 | 90.5 | 100

Ordered by formula weight (rising): some entries from above.
Structure (SMILES) | reduction in cell viability (M229P) [%] | reduction in cell viability (M229R) [%] | reduction in cell viability (M238P) [%] | reduction in cell viability (M238R) [%] | reduction in cell viability (M249P) [%] | reduction in cell viability (M249R) [%] | reduction in cell viability (UACC62P) [%] | reduction in cell viability (UACC62R) [%]
O=C(O)c1cccc(-c2noc(-c3ccccc3F)n2)c1 | < 0 | < 0 | < 0 | < 0 | < 0 | < 0 | < 0 | < 0
CCOC(=O)C1=C[C@@H](OC(CC)CC)[C@H](NC(C)=O)[C@@H](N)C1 [Oseltamivir phosphate] | < 0 | < 0 | < 0 | < 0 | < 0 | 16.3 | 9.11 | < 0
CCc1ccc(OCc2ccccc2C(=O)Nc2ccc3nc(C)cc(N)c3c2)cc1 | < 0 | < 0 | < 0 | < 0 | < 0 | 5.69 | < 0 | < 0
CCNc1cc(NC2CCC(O)CC2)nc(Nc2ccc3c(ccn3Cc3ccccc3)c2)n1 (stereo not given) [Cdk4/6 Inhibitor IV] | < 0 | < 0 | < 0 | < 0 | < 0 | < 0 | < 0 | < 0
CCC(=O)O[C@]1(C(=O)CCl)[C@@H](C)C[C@H]2[C@@H]3CCC4=CC(=O)C=C[C@]4(C)[C@@]3(F)[C@@H](O)C[C@@]21C [Clobetasol propionate] | < 0 | < 0 | < 0 | < 0 | < 0 | < 0 | < 0 | < 0
